Reference: the supplement of paper PMC10849652
The list shows a part of the results.

Legend:
Experiment in all cases: log2 fold change, soluble protein after heating vs DMSO (PISA); higher = thermal stabilisation; K562 cells, 10 uM, 30 min; active = over 0.2 and 3.5 SD of the protein, either way, in both replicates (recomputed)
bafetinib = compound: Cc1ccc(NC(=O)c2ccc(CN3CC[C@H](N(C)C)C3)c(C(F)(F)F)c2)cc1Nc1nccc(-c2cncnc2)n1 [bafetinib]
How it was run: (§1)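 For each measurement, 10 μM compound was applied for 30 min to K562 cells at 2×10^6 cells/mL. Aliquots were heated for 3 min across 48°C-58°C, pooled, and extracted in PBS with 0.5% NP-40 at 4°C; the supernatant after 21,000xg for 90 min was soluble protein. This was quantified by TMTpro 16plex LC-MS/MS with channel sums equalised, and thermal stability was reported relative to control samples from duplicates, on a log2 fold-change scale.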

[1] = compound: Cc1cccc(CC(=O)N2CCc3c2ccc(-c2cn(C)c4ncnc(N)c24)c3F)n1
How it was run: as §1

nilotinib = compound: Cc1cn(-c2cc(NC(=O)c3ccc(C)c(Nc4nccc(-c5cccnc5)n4)c3)cc(C(F)(F)F)c2)cn1 [nilotinib]
How it was run: as §1

[2] = compound: Cc1nc(Nc2n[nH]c3c2CN(C(=O)N[C@H](CN(C)C)c2ccccc2)C3(C)C)c2sccc2n1
How it was run: as §1

dasatinib = compound: Cc1nc(Nc2ncc(C(=O)Nc3c(C)cccc3Cl)s2)cc(N2CCN(CCO)CC2)n1 [dasatinib]
How it was run: as §1

[3] = compound: Cc1ncc(-c2ccnc(Nc3ccc(S(C)(=O)=O)cc3)n2)n1C(C)C
How it was run: as §1

[4] = compound: Cn1cc(-c2ccc3c(c2)CCN3C(=O)Cc2cccc(C(F)(F)F)c2)c2c(N)ncnc21
How it was run: as §1

[5] = compound: Cn1cc(-c2ccc3nnc(C(F)(F)c4ccc5ncccc5c4)n3n2)cn1
How it was run: as §1

tipifarnib = compound: Cn1cncc1[C@@](N)(c1ccc(Cl)cc1)c1ccc2c(c1)c(-c1cccc(Cl)c1)cc(=O)n2C [tipifarnib]
How it was run: as §1

mubritinib = compound: FC(F)(F)c1ccc(/C=C/c2nc(COc3ccc(CCCCn4ccnn4)cc3)co2)cc1 [mubritinib]
How it was run: as §1

Measured: log2 fold change

RPS23 (UniProt P62266)
inactive: bafetinib 0.399 | [1] 0.02 | nilotinib -0.007 | [2] 0.222 | dasatinib 0.164 | [3] -0.049 | [4] -0.343 | [5] -0.012 | tipifarnib 0.127 | mubritinib -0.177

RPL12 (UniProt P30050)
inactive: bafetinib 0.457 | [1] 0.007 | nilotinib -0.013 | [2] 0.223 | dasatinib 0.335 | [3] -0.047 | [4] -0.549 | [5] -0.332 | tipifarnib 0.378 | mubritinib -0.344

RPL26L1 (UniProt Q9UNX3)
inactive: bafetinib 0.379 | [1] -0.019 | nilotinib 0.046 | [2] 0.231 | dasatinib 0.18 | [3] -0.026 | [4] -0.19 | [5] -0.125 | tipifarnib 0.162 | mubritinib -0.21

RPL23A (UniProt P62750)
inactive: bafetinib 0.315 | [1] -0.001 | nilotinib 0.008 | [2] 0.155 | dasatinib 0.167 | [3] -0.027 | [4] -0.267 | [5] -0.15 | tipifarnib 0.106 | mubritinib -0.179

RPS17 (UniProt P08708)
inactive: bafetinib 0.194 | [1] -0.018 | nilotinib 0.039 | [2] 0.123 | dasatinib 0.121 | [3] -0.007 | [4] -0.201 | [5] -0.032 | tipifarnib 0.06 | mubritinib -0.076
